From patent US20230184787A1
Results are given in words; binding and its absence hold for the method and conditions named. Some entries that bind do so weakly or less than the wild type.

Experiments:
[1] = target: T1, HNE cleaved calprotectin (HNE-generated fragment NBH-222 carrying the N-terminus neo-epitope CPa9-HNE) (Homo sapiens); assay: competitive ELISA (CPa9-HNE assay)
T1 sequence (peptide): KLGHPDTLNQGEFKELV

[2] = target: T1, HNE cleaved calprotectin (HNE-generated fragment NBH-222 carrying the N-terminus neo-epitope CPa9-HNE) (Homo sapiens); assay: competitive ELISA (CPa9-HNE assay) on in vitro cleavage samples, FIG. 2C

B1: CPa9-HNE antibody (antibody, mouse IgG1, kappa, V domains shown)
VH: QVQLQQSGPELVKPGASVKMSCKASGYTFTDHVINWVRQRTGQGLEWIGEIYPGSGSTYYNEKFKGKATLTADKSSNTAYMQLSSLTSEDSAVYFCAWFAYWGQGTLVTVSA
VL: DIVMTQSPSSLSVSAGEKVTMSCKSSQSLLNSGNQKNYLAWYQQKPGQPPKLLIYGASTRESGVPDRFTGSGSGTDFTLTISSVQAEDLAVYYCLNDHSYPYTFGGGTKLEIKR
- binding [1]: binds
- binding [2]: binds
